From PubChem BioAssay AID1671190 (National Center for Advancing Translational Sciences (NCATS), 2021)
Values joined by “and” are separate entries in the source; they are usually repeats but may differ in a detail not shown here. Identical values can stand only once. In all, about 580,000 compounds went through this assay and about 6,100 (1.1%) were called active. Inconclusive results, whose numbers are uncertain, are shown with a selection of clear calls. Calls come from the whole dose curve; as a rule, active = well fitted inhibition curve with a large enough effect; inconclusive = small, poorly fitted or top-dose-only effect, or another doubt; inactive = no such curve, though single readings can be large or run the other way. A potency beside an inconclusive call is a rough fit, not a confirmed value.

By UniProt entry, the sequences of proteins in these tests, tags left out.
UniProt P18054, whole entry, looked up: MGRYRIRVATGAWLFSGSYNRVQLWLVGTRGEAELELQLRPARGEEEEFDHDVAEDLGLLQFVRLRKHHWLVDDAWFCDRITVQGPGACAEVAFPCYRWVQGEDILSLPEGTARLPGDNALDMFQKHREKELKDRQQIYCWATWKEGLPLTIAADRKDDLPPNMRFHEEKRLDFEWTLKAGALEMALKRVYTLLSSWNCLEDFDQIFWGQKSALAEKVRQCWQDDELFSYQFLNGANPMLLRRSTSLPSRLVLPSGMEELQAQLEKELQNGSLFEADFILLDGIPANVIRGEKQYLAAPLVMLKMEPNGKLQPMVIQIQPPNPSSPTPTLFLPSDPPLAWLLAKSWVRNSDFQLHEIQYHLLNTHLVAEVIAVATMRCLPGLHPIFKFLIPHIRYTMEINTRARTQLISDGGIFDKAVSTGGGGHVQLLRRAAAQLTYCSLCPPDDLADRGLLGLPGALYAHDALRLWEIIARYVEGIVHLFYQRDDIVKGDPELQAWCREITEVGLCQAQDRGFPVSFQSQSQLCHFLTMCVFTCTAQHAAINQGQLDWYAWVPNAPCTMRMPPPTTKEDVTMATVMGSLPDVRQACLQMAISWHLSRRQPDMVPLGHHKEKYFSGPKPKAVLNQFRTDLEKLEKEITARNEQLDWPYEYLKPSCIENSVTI

What follows are compounds tested against Polyunsaturated fatty acid lipoxygenase ALOX12 (Homo sapiens) (UniProt P18054) (assay: Primary qHTS assay for inhibitors of human arachidonate 12S-lipoxygenase (ALOX12): Round 2). Conditions: purified 12hLO, xylenol orange hydroperoxide absorbance; series mostly up to 108 µM.
Method in brief: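 Hydroperoxide product was detected by ferrous iron/xylenol orange as the 573 to 405 nm absorbance ratio. Arachidonic acid at 40 uM (final) was turned over for 30 min at room temperature by 150 nM human 12hLO, pH 7.0 Hepes buffer, after 15 min compound preincubation.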
Potency is the fitted concentration of half-maximal effect.

SMILES | Potency
C/C(=N\NC(=O)C1CC1)c1ccncc1 | inconclusive: 1.58 µM [inhibitor, full curve, poor fit]
CC(=O)NCCNC(=O)C1CCCN(S(=O)(=O)c2ccccc2)CCC(=O)NCC1 (stereo unspecified) | inconclusive: 35.5 µM [inhibitor, full curve, poor fit]
O=C(Nc1ccc(N2CCN(C(=O)c3ccc(Cl)cc3)CC2)cc1)c1ccc(Br)o1 | inconclusive: 50.1 µM [inhibitor, partial curve, poor fit]
CCOc1c2ccc(C(=O)NCCCCc3ccccc3)cc2nn1CC | inconclusive: 79.4 µM [inhibitor, partial curve, poor fit]
COc1cccc(C#Cc2ccc3c(c2)O[C@H](CN(C)C)[C@@H](C)CN([C@@H](C)CO)S3(=O)=O)c1 | inconclusive: 39.8 µM [inhibitor, partial curve]
COC(=O)CCNC(=O)c1ccc(C(C)(C)C)cc1 | inconclusive: 39.8 µM [inhibitor, partial curve, poor fit]
CCOc1ccc(CN2C(=O)CC(=O)N(S(=O)(=O)c3ccc(OCC)cc3)C2=O)cc1 | inconclusive: 39.8 µM [inhibitor, partial curve]
Cc1ccc(C)c(N2CCN(CCCNC(=O)Cn3ncc4c([nH]c5ccccc54)c3=O)CC2)c1 | inconclusive: 112 µM [inhibitor, partial curve, poor fit]
CC(C)(C)c1cc(CCC(N)=O)cc(C(C)(C)C)c1O | inconclusive: 44.7 µM [inhibitor, partial curve, poor fit]
O=c1c2ccccc2[nH]c(=S)n1CCc1ccccc1 | inactive
COc1cc(NS(=O)(=O)c2ccc(NC(=O)COc3ccccc3C)cc2)nc(OC)n1 | inconclusive: 50.1 µM [inhibitor, partial curve, poor fit]
CN1C[C@H](C(=O)N[C@]2(C)O[C@@]3(O)[C@@H]4CCCN4C(=O)[C@H](Cc4ccccc4)N3C2=O)CC2c3cccc4[nH]cc(c34)C[C@H]21 (stereo partly specified) | inconclusive: 50.1 µM [inhibitor, partial curve, poor fit]
CC(NCc1ccc(N(C)C)cc1)C1CC2CCC1C2 (stereo unspecified) | inconclusive: 5.01 µM [inhibitor, full curve, poor fit]
Cc1cccc(N2CCN(S(=O)(=O)c3cn(C)cn3)CC2)c1C | inactive
Cc1ccccc1NC(=O)CSC1=Nc2ccccc2C2CC=NN12 (stereo unspecified) | inactive
CC(C)c1ccc(/C=C/C(=O)NC2CC2)cc1 | inconclusive: 3.98 µM [inhibitor, full curve, poor fit]
O=C(CSc1nnc(Cc2cc(=O)[nH]c(=O)[nH]2)n1-c1ccccc1)N1CCCC1 | inconclusive: 14.1 µM [inhibitor, full curve, poor fit]
N#C/C(=C\c1ccc([N+](=O)[O-])o1)C(=O)NC1CCCCC1 | active: 15.8 µM
O=C(Cc1cccs1)Nc1nnc(SCc2ccc(Br)cc2)s1 | inactive
O=C1/C(=C\c2cccc(O)c2O)SC(=S)N1Cc1ccccc1 | inconclusive: 3.98 µM [inhibitor, full curve, poor fit]
O=S(=O)(c1cccs1)N1CCN(C/C=C/c2ccccc2)CC1 | inconclusive: 3.98 µM [inhibitor, partial curve]

SMILES | Potency
O=C(NCC(c1cccs1)N1CCOCC1)c1cc2ccccc2oc1=O (stereo unspecified) | active: 17.8 µM and inconclusive: 22.4 µM [inhibitor, partial curve]
Cc1ccc(C)c(CN2CCN(c3nc4c(c(=O)[nH]c(=O)n4C)n3C/C=C/c3ccccc3)CC2)c1 | inactive
NCCCNCCCCNCCCN | inconclusive: 31.6 µM [inhibitor, partial curve, poor fit] and inconclusive: 50.1 µM [inhibitor, partial curve, poor fit]
Cc1cccc(N2CCN(c3nc4ccccc4c(=O)n3-c3ccc(Cl)cc3)CC2)c1C | inactive
C=CCSC1=N/C(=C\c2ccc(C(=O)O)cc2)C(=O)S1 | inactive
CCC(=O)c1c(OCCC(C)C)ccc2c(C)cc(=O)oc12 | inactive
CSc1ccc(/C=C2\N=C(c3ccccc3)OC2=O)cc1 | inactive
Cc1cc(N2C(=O)C(=O)/C(=C(/O)c3ccccc3)C2c2cccc(Br)c2)no1 (stereo unspecified) | inconclusive: 8.91 µM [inhibitor, partial curve, poor fit]
O=C(N/N=C/c1ccc(-c2ccccc2C(=O)O)o1)c1cccs1 | inconclusive: 70.8 µM [inhibitor, partial curve, poor fit]
CCOc1ccc(NS(=O)(=O)c2ccc(C(=O)NC3CCN(C(C)C)CC3)cc2)cc1 | inconclusive: 50.1 µM [inhibitor, partial curve, poor fit]
COc1ccc(/C=C/c2nc3ccccc3[nH]c2=O)cc1 | inconclusive: 25.1 µM [inhibitor, partial curve, poor fit]
COc1cc(C2NC(=O)N(C)C(C)=C2C(=O)OCc2ccccc2)cc(Br)c1O (stereo unspecified) | inconclusive: 39.8 µM [inhibitor, single point]
O=C(Nc1nnc(COc2ccc(Cl)cc2)s1)c1cccs1 | inactive
Fc1cccc(-c2nc(COc3ccccc3Br)co2)c1 | inconclusive: 39.8 µM [inhibitor, partial curve, poor fit]
CC1CCN(c2nnc(-c3ccccc3)c3ccccc23)CC1 | inconclusive: 50.1 µM [inhibitor, partial curve, poor fit]
Cc1cccc(Oc2ccc(Cl)cc2N)c1 | inconclusive: 10 µM [inhibitor, full curve]
O=C(NCCOc1ccccc1)c1cncc(Br)c1 | inconclusive: 89.1 µM [inhibitor, single point]
COc1ncnc2c1ncn2CCCNCc1ccco1 | inconclusive: 39.8 µM [inhibitor, single point]
COc1ccc(C)cc1NC(=O)Cn1cnnn1 | inconclusive: 141 µM [inhibitor, single point]
O=C(O)c1coc(Br)c1 | inactive
